This is an account of results in article PMC6224402.

Chains of the proteins cited; added tags and fusions are not shown. Lines headed by an entry give the natural chain unless they say otherwise; changes in a name come on top.
UniProt Q9P1W9: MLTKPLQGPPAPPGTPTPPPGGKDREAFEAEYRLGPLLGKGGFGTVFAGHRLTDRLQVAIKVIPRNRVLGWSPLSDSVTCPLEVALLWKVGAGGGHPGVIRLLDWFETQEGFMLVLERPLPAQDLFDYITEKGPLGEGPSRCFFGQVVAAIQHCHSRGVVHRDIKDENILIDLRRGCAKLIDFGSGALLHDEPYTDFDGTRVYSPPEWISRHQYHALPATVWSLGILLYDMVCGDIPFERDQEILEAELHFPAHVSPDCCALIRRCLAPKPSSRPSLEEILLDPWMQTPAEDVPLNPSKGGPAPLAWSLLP

In assay [1] the target is T1, HA-tagged HK2 (Hexokinase-II) (human) (UniProt P52789).
T1 sequence: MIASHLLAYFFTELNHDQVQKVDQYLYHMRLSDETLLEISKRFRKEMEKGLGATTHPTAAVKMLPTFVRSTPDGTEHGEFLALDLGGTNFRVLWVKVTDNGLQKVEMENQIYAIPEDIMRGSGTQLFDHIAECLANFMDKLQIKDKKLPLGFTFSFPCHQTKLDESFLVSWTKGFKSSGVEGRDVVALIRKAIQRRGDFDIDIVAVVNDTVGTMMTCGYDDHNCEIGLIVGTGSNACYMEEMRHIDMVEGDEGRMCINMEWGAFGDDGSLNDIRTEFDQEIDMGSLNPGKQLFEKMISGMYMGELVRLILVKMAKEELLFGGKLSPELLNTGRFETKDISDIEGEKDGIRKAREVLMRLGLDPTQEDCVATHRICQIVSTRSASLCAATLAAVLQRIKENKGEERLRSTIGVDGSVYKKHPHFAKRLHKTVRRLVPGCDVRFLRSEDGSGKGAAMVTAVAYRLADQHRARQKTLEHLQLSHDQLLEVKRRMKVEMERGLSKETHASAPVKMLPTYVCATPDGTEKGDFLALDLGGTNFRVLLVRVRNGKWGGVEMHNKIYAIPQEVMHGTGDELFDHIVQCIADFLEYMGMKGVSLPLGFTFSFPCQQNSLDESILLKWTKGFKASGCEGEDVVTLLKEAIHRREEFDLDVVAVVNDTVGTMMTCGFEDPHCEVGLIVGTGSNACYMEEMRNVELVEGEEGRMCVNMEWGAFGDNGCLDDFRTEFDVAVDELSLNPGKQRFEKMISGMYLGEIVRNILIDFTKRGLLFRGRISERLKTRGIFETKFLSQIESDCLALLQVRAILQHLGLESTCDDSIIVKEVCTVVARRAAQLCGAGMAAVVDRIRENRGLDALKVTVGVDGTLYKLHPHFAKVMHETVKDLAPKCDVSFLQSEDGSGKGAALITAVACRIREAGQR
As to the kind of experiment: co-IP; HEK293T cells overexpressing tagged proteins; IP buffer lysate; immunoprecipitation with anti-HA or anti-Flag antibody, immunoblotting. In general terms: In western blotting, separated proteins are transferred to a membrane and probed.

Assay [2] addresses T2, endogenous HK2 (human (endogenous in MCF-7)) (UniProt P52789).
T2 sequence: T1 sequence
Kind of assay: co-IP; endogenous proteins, MCF-7 cell lysate; immunoprecipitation with anti-PIM2 or anti-HK2 antibody, immunoblotting.

These are yes or no findings as the source states them, for the method shown. Binding seen in cells or lysates may run through a third protein. Some entries that bind do so weakly or less than the wild type. For part of these data: Where a sequence is shown, tags or fusion partners need not be part of it.

On to “Flag-tagged PIM2 (Proviral Insertion in Murine Lymphomas 2) (from UniProt Q9P1W9 1-311) (enzyme)”, for which, in assay [1], the binding result was “binds”.
Turning to “GFP-tagged PIM2 (33–286) (from UniProt Q9P1W9 33-286) (domain or fragment)”, the binding entry in assay [1] is “binds”.
For the substance “endogenous PIM2 (from UniProt Q9P1W9 1-311) (enzyme)”, the binding entry in assay [2] was “binds”.
